Data as given in PubChem BioAssay AID1224830 (NIAID, 2016).
Aim: 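Regulators of TLR4 signalling towards TNF-alpha in macrophage-like cells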 (primary screen). System: human THP-1 monocytic leukaemia cells, TNF dual-luciferase reporter clone, PMA-differentiated to macrophage-like cells. Knock-down reagent: siRNA pool against human genes, 50 nM. Duration: LPS for 4 h, given about 3 days after siRNA transfection. Conditions: bacterial LPS (TLR4 ligand), 10 ng/ml. Measured: 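Ratio of firefly to renilla light, scaled to the plate median and expressed as a robust z-score per replicate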. Direction: TNF reporter robust z-score: higher = stronger TNF reporter response to LPS. Hit rule: 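Each well counts as active if its z-score is over 2.8 or under -1.5; controls are left without a call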.
The whole screen tested about 18,000 reagents; this is an unselected part. Over the whole deposit, about 2,900 (16%) are marked active. 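Calls are made per well; low scores hint the gene aids the LPS response, high scores that it dampens it.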 Entries without a mark were called inactive. Repeated entries: four replicate wells of each siRNA pool.

| Target gene | TNF reporter robust z-score |
| --- | --- |
| PRLR (prolactin receptor) | 1.02 |
| PRLR (prolactin receptor) | 1.51 |
| PRLR (prolactin receptor) | 1 |
| PRLR (prolactin receptor) | 0.03 |
| GRM4 (glutamate metabotropic receptor 4) | 0.7 |
| GRM4 (glutamate metabotropic receptor 4) | 1.29 |
| GRM4 (glutamate metabotropic receptor 4) | 0.17 |
| GRM4 (glutamate metabotropic receptor 4) | 0.54 |
| XKR4 (XK related 4) | -0.71 |
| XKR4 (XK related 4) | -1.01 |
| XKR4 (XK related 4) | -0.25 |
| XKR4 (XK related 4) | 0.09 |
| BRS3 (bombesin receptor subtype 3) | 0.55 |
| BRS3 (bombesin receptor subtype 3) | 0.6 |
| BRS3 (bombesin receptor subtype 3) | -0.4 |
| BRS3 (bombesin receptor subtype 3) | 1.65 |
| CCL23 (C-C motif chemokine ligand 23) | -0.04 |
| CCL23 (C-C motif chemokine ligand 23) | 1.21 |
| CCL23 (C-C motif chemokine ligand 23) | 0.11 |
| CCL23 (C-C motif chemokine ligand 23) | 0.26 |
| FAM27E5 (family with sequence similarity E5) | 0.4 |
| FAM27E5 (family with sequence similarity E5) | 0.5 |
| FAM27E5 (family with sequence similarity E5) | 1.17 |
| FAM27E5 (family with sequence similarity E5) | -0.16 |
| ATP5MJ (ATP synthase membrane subunit j) | 6.69 (active) |
| ATP5MJ (ATP synthase membrane subunit j) | 1.45 |
| ATP5MJ (ATP synthase membrane subunit j) | 1.24 |
| ATP5MJ (ATP synthase membrane subunit j) | 1.74 |
| DSG3 (desmoglein 3) | -0.5 |
| DSG3 (desmoglein 3) | -0.51 |
| DSG3 (desmoglein 3) | -0.62 |
| DSG3 (desmoglein 3) | -0.18 |
| PAXBP1 (PAX3 and PAX7 binding protein 1) | -1.47 |
| PAXBP1 (PAX3 and PAX7 binding protein 1) | -1.61 (active) |
| PAXBP1 (PAX3 and PAX7 binding protein 1) | -1.73 (active) |
| PAXBP1 (PAX3 and PAX7 binding protein 1) | -1.27 |
| MATN1 (matrilin 1) | -0.01 |
| MATN1 (matrilin 1) | 0.08 |
| MATN1 (matrilin 1) | 2.06 |
| MATN1 (matrilin 1) | 5.46 (active) |
| ELOF1 (elongation factor 1) | -0.57 |
| ELOF1 (elongation factor 1) | -0.41 |
| ELOF1 (elongation factor 1) | -0.6 |
| ELOF1 (elongation factor 1) | -0.51 |
| PRSS50 (serine protease 50) | -0.15 |
| PRSS50 (serine protease 50) | -0.32 |
| PRSS50 (serine protease 50) | -0.46 |
| PRSS50 (serine protease 50) | -0.58 |
| FOSB (FosB proto-oncogene, AP-1 transcription factor subunit) | 0.31 |
| FOSB (FosB proto-oncogene, AP-1 transcription factor subunit) | -0.17 |
| FOSB (FosB proto-oncogene, AP-1 transcription factor subunit) | 0.43 |
| FOSB (FosB proto-oncogene, AP-1 transcription factor subunit) | 0.75 |
| TCP11L1 (t-complex 11 like 1) | 1.15 |
| TCP11L1 (t-complex 11 like 1) | 1.86 |
| TCP11L1 (t-complex 11 like 1) | 1.98 |
| TCP11L1 (t-complex 11 like 1) | 0.55 |
| DCST1 (DC-STAMP domain containing 1) | 1.43 |
| DCST1 (DC-STAMP domain containing 1) | 1.88 |
| DCST1 (DC-STAMP domain containing 1) | -0.21 |
| DCST1 (DC-STAMP domain containing 1) | -1.07 |
| KLRG2 (killer cell lectin like receptor G2) | -0.73 |
| KLRG2 (killer cell lectin like receptor G2) | 0.28 |
| KLRG2 (killer cell lectin like receptor G2) | -0.27 |
| KLRG2 (killer cell lectin like receptor G2) | 0.09 |
| VCAM1 (vascular cell adhesion molecule 1) | 0.43 |
| VCAM1 (vascular cell adhesion molecule 1) | 1.19 |
| VCAM1 (vascular cell adhesion molecule 1) | -0.12 |
| VCAM1 (vascular cell adhesion molecule 1) | 0.97 |
| TOP1MT (DNA topoisomerase I mitochondrial) | 0.47 |
| TOP1MT (DNA topoisomerase I mitochondrial) | 0.18 |
| TOP1MT (DNA topoisomerase I mitochondrial) | -0.96 |
| TOP1MT (DNA topoisomerase I mitochondrial) | 0.61 |
| KCNJ9 (potassium inwardly rectifying channel subfamily J member 9) | -0.94 |
| KCNJ9 (potassium inwardly rectifying channel subfamily J member 9) | -0.04 |
| KCNJ9 (potassium inwardly rectifying channel subfamily J member 9) | -0.24 |
| KCNJ9 (potassium inwardly rectifying channel subfamily J member 9) | 0.36 |
| RNFT1 (ring finger protein, transmembrane 1) | -1.32 |
| RNFT1 (ring finger protein, transmembrane 1) | 0 |
| RNFT1 (ring finger protein, transmembrane 1) | 0.35 |
| RNFT1 (ring finger protein, transmembrane 1) | -1.56 (active) |
| CCNY (cyclin Y) | 0.11 |
| CCNY (cyclin Y) | 0.45 |
| CCNY (cyclin Y) | -0.62 |
| CCNY (cyclin Y) | -0.05 |
| PRDM15 (PR/SET domain 15) | -0.91 |
| PRDM15 (PR/SET domain 15) | -1.44 |
| PRDM15 (PR/SET domain 15) | 0.28 |
| PRDM15 (PR/SET domain 15) | -0.15 |
| FZD8 (frizzled class receptor 8) | 1.1 |
| FZD8 (frizzled class receptor 8) | -0.35 |
| FZD8 (frizzled class receptor 8) | 1.14 |
| FZD8 (frizzled class receptor 8) | -0.48 |
| AKAP8 (A-kinase anchoring protein 8) | -0.13 |
| AKAP8 (A-kinase anchoring protein 8) | 0.68 |
| AKAP8 (A-kinase anchoring protein 8) | -0.19 |
| AKAP8 (A-kinase anchoring protein 8) | 0.16 |
| MB21D2 (Mab-21 domain containing 2) | -1.26 |
| MB21D2 (Mab-21 domain containing 2) | -0.21 |
| MB21D2 (Mab-21 domain containing 2) | -1.17 |
| MB21D2 (Mab-21 domain containing 2) | -1.09 |
| LINC02897 (long independently transcribed non-coding RNA 2897) | -0.27 |
| LINC02897 (long independently transcribed non-coding RNA 2897) | 0.22 |
| LINC02897 (long independently transcribed non-coding RNA 2897) | -0.4 |
| LINC02897 (long independently transcribed non-coding RNA 2897) | -0.26 |
| MYOC (myocilin) | -0.83 |
| MYOC (myocilin) | -0.47 |
| MYOC (myocilin) | -0.55 |
| MYOC (myocilin) | 0.51 |
| USH1G (USH1 protein network component sans) | 3.1 (active) |
| USH1G (USH1 protein network component sans) | 1.38 |
| USH1G (USH1 protein network component sans) | 0.98 |
| USH1G (USH1 protein network component sans) | 1.04 |
